# Reference: PubChem BioAssay AID2551 (National Center for Advancing Translational Sciences (NCATS), 2010)
# Protein sequences, listed by entry. Tags and fused reporters are not part of them. Lines headed by an entry give the natural chain unless they say otherwise; changes in a name come on top.
# UniProt P51450: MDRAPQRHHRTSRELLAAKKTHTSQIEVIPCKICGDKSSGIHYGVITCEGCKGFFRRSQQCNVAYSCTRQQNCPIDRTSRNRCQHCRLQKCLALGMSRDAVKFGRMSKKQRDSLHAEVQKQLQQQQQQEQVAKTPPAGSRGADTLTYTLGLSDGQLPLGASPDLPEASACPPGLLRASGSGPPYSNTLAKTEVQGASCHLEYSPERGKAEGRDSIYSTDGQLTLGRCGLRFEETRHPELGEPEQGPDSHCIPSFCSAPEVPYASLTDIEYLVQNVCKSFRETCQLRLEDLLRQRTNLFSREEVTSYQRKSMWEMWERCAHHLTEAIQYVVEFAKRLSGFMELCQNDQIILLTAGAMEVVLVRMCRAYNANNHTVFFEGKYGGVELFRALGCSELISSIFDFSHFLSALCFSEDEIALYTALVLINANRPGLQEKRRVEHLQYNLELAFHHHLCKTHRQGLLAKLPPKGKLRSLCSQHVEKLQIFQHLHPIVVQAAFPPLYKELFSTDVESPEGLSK
# Where “and” joins values, the source holds several entries; their conditions need not be identical. Equal entries are not always repeated. Hit rate of the full screen: of about 310,000 compounds, about 17,000 (5.5%) were called active. The inconclusive results got no clear call from the source; some entries with a clear call stand among them for comparison. Calls follow the shape of the dose curve; as a rule, active = well fitted inhibition curve with a large enough effect; inconclusive = small, poorly fitted or top-dose-only effect, or effect the other way; inactive = no such curve, though single readings can be large or run the other way. Potencies of inconclusive entries are doubtful fits and often do not repeat.
# Biological target: Nuclear receptor ROR-gamma (Mus musculus) (UniProt P51450)
# Assay: qHTS for inhibitors of ROR gamma transcriptional activity; also: nearly all actives have a fitted effect of over 60% in size
# Settings: Drosophila S2 Gal4-RORgamma UAS-luciferase reporter, 20 h; series mostly up to 53.6 µM
# Text: NIH Molecular Libraries Probe Production Network [MLPCN] NIH Chemical Genomics Center [NCGC] MLPCN Grant: R03 DA026211-01 Assay Provider: Dan Littman, New York University Assay Overview: The retinoic acid-related orphan receptor (ROR) gamma is a transcription factor that has a central role in the differentiation of Th17 cells, a subset of T helper cells that secrete the inflammatory cytokines IL-17, IL-17F, and IL-22. Th17 cells have been implicated in graft versus host disease, autoimmune disease and asthma. ROR gamma is induced in naive T helper cells in the presence of TGF-beta combined with IL-6, IL-21, or IL-23, and thereafter directs the expression of the Th17 lineage cytokines. To study the mechanism of action of ROR gamma, an insect cell-based assay was screened. This Drosophila Schneider cell line was stably transfected with two vectors: a gene expressing a fusion of the Gal4 DNA binding domain and ROR gamma transactivation domain under the control of the metallothionine promoter and a Photinus luciferase reporter regulated by the Gal4 binding site enhancer, UAS. […] Small molecule inhibitors of ROR gamma activity are detected by a decrease in luciferase reporter activity.
# Assay Protocol Summary: For screening, 600 cells in 4 uL/well were dispensed into white solid 1536-well plates (Grenier) using a solenoid-based dispenser. Following transfer of 23 nL compound or DMSO vehicle by a pin tool, the plates were incubated 1 hr at ambient temperature, and 1 uL/well copper sulfate (700 uM final concentration) was added. The plates were centrifuged 15 s at 1000 RPM and incubated 20 hr at ambient temperature. After addition of 1.5 uL Photinus luciferase detection reagent, the plates were incubated 10 min at ambient temperature and then read by an ViewLux (Perkin Elmer) to detect luminescence. Keywords: NIH Roadmap, MLPCN, MLI, MLSMR, qHTS, NCGC, qHTS, nuclear hormone receptor, retinoic acid-related orphan receptor, ROR gamma
# Potency is read from the fitted curve at half-maximal effect.
row,Structure (SMILES),Potency
1,CCc1ccc2nc(N3CCC(C(=O)N4CCC5(CC4)OCCO5)CC3)sc2c1,"inconclusive: 25.1 µM [activator, partial curve]"
2,CC(=O)Nc1ccc(N=Cc2c(O)n(Cc3ccco3)c(=O)[nH]c2=O)cc1,"inconclusive: 20 µM [activator, single point]"
3,COc1ccc(CCn2c(O)c(C=NCc3cccnc3)c(=O)[nH]c2=O)cc1OC,inactive
4,CNC(=O)Oc1cccc(-c2cn3cc(OC(=O)NC)ccc3n2)c1,"inconclusive: 22.4 µM [inhibitor, single point]"
5,Nc1c(C(=O)OCC2CCCO2)c2nc3ccccc3nc2n1Cc1cccs1 (stereo unspecified),"inconclusive: 6.31 µM [inhibitor, single point]"
6,CCCCn1c(C)c(C(=O)OCC)c2c(CN3CCOCC3)c(O)ccc21,inactive
7,Cc1c(C(c2ccc(Cl)cc2Cl)c2c(O)c3ccccc3oc2=O)c(=O)n(-c2ccccc2)n1C (stereo unspecified),inactive
8,CC(C)C(=O)Nc1ccc([N+](=O)[O-])c(C(F)(F)F)c1,"inconclusive: 35.5 µM [activator, single point] and inconclusive: 17.8 µM [activator, partial curve]"
9,COc1cccc(C(=O)C2CCCN(Cc3ccon3)C2)c1 (stereo unspecified),inactive
10,CC(=C1C(=O)c2ccccc2C1=O)N1CCN(CCN=Cc2c(O)n(C)c(=O)n(C)c2=O)CC1,active: 7.08 µM
11,CCOc1ccc(CC2C(=O)NC(=O)N(c3ccc(CC)cc3)C2=O)cc1 (stereo unspecified),inactive
12,O=C(CNC(=O)OCc1ccccc1)Nc1ccc(Br)cc1C(=O)c1ccccc1Cl,"inconclusive: 0.708 µM [activator, single point]"
13,CC(C(=O)c1cn(C)c2ccccc12)c1ccccc1 (stereo unspecified),inactive
14,C[C@@H]1C[C@@H]2O[C@H]2/C=C\C=C\C(=O)Cc2c(Cl)c(O)cc(O)c2C(=O)O1,active: 10 µM
15,Cc1nc2cc(-c3cccc(F)c3)nn2c(C)c1CCC(=O)N1CCC2(CC1)OCCO2,"inconclusive: 22.4 µM [inhibitor, single point]"
16,N#Cc1ccccc1Cn1cc(C(=O)c2cccs2)c2ccccc21,"inconclusive: 20 µM [activator, single point]"
17,CCCCCCOc1ccc(CN2CCN(CC)CC2)cc1,inactive
18,C[C@H]1O[C@@H](OC2CC[C@]3(C=O)[C@H]4CC[C@]5(C)[C@@H](C6=CC(=O)OC6)CC[C@]5(O)[C@@H]4CC[C@]3(O)C2)CC2OC(C)(C)OC21 (stereo partly specified),active: 15.8 µM
19,O=C(Oc1cccc2cccnc12)c1ccccc1,active: 1.41 µM
20,O=C(Oc1c(Br)cc(Br)c2cccnc12)N1CCCCC1,"inconclusive: 15.8 µM [activator, single point]"
21,O=C(O)CCC(CP(=O)(O)O)C(=O)O (stereo unspecified),inactive
22,CSc1ccc(CN2CCN(Cc3ccccc3Cl)CC2)cc1,inactive
23,S=C1NC2(CCCCC2)NC12CCCCC2,active: 8.91 µM
24,O=C1NC(=O)C(=Cc2ccc(-c3ccc(F)cc3O)o2)C(=O)N1,"inconclusive: 35.5 µM [inhibitor, single point]"

row,Structure (SMILES),Potency
1,CCC(=O)Nc1nc2ccccc2n1CCN(C)C,"inconclusive: 0.631 µM [inhibitor, partial curve]"
2,Cc1ccc(Cn2cc(C=O)c(-c3ccc(C)cc3)n2)cc1,"inconclusive: 11.2 µM [activator, partial curve]"
3,C=CCn1c(O)c(/C(CC)=N/NC(=S)Nc2ccccc2)c(=O)[nH]c1=O,"inconclusive: 11.2 µM [inhibitor, partial curve, poor fit]"
4,O=C(Nc1ccc(Cl)cc1C(=O)c1ccccc1)c1ccco1,inactive
5,O=c1c2ccccc2[nH]c(=S)n1-c1ccc2c(c1)OCCO2,"inconclusive: 10 µM [inhibitor, partial curve, poor fit]"
6,C/C=C1/CN2CC[C@]34C(=C(C=O)[C@H]1C[C@@H]23)Nc1ccccc14,inactive
7,Nc1ncnc2c1ccn2[C@@H]1O[C@H](CO)[C@@H](O)[C@H]1O,active: 0.631 µM
8,COc1ccc(OC)c(C(O)C2CCCCN2)c1 (stereo unspecified),"inconclusive: 0.282 µM [inhibitor, single point]"
9,COC12C(COC(N)=O)C3=C(C(=O)C(C)=C(N)C3=O)N1CC1C2N1C (stereo unspecified),inactive
10,CCCCC(=O)N/N=C/c1c(O)n(Cc2ccco2)c(=O)[nH]c1=O,"inconclusive: 10 µM [inhibitor, partial curve]"
11,CC[C@@]1(O)C(=O)OCc2c1cc1n(c2=O)Cc2cc3c(O)cccc3nc2-1,active: 0.355 µM
12,N[C@H](CCP(=O)(O)O)C(=O)O,inactive
13,CC/C=C\C[C@@H](/C=C/C=C\C/C=C\C/C=C\CCCC(=O)O)OO,"inconclusive: 31.6 µM [inhibitor, single point]"
14,C[C@]12CC[C@@H]3c4ccc(O)c(O)c4CC[C@H]3[C@@H]1CC[C@@H]2O,"inconclusive: 15.8 µM [inhibitor, single point]"
15,Cc1ccc(/C=C2/Sc3ccc(C(=O)N4CCC5(CC4)OCCO5)cc3NC2=O)cc1,"inconclusive: 12.6 µM [activator, partial curve]"
16,CC(c1ccccc1F)n1cc(C(=O)Nc2ccc3nc[nH]c3c2)nn1 (stereo unspecified),"inconclusive: 3.16 µM [inhibitor, partial curve]"
17,Cc1cccc(-n2c(=S)[nH]c3ccccc3c2=O)n1,active: 12.6 µM
18,CC/C=C/CC(=O)N[C@@H](c1ccccc1)[C@@H](O)C(=O)O[C@H]1C[C@@]2(O)[C@@H](OC(=O)c3ccccc3)C3[C@](C)(C(=O)[C@H](OC(C)=O)C(=C1C)C2(C)C)[C@@H](O)C[C@H]1OC[C@@]31OC(C)=O (stereo partly specified),"inconclusive: 14.1 µM [activator, single point]"
19,CC[n+]1c(-c2ccccc2)c2cc(N)ccc2c2ccc(N)cc21,"inconclusive: 35.5 µM [inhibitor, single point]"
20,CCS(=O)(=O)N1N=C(c2cccc(NS(C)(=O)=O)c2)CC1c1ccccc1 (stereo unspecified),"inconclusive: 11.2 µM [activator, partial curve]"
21,COc1cc(OC)c(OC)cc1CN1CCN(C(=O)COc2ccc3ccccc3c2)CC1,inactive
22,CN1CC=C(/C=C/c2ccc(-c3ccccc3)cc2)CC1,"inconclusive: 12.6 µM [inhibitor, single point]"
23,CC12CC(c3ccccc3O1)C(C(=O)OCc1ccccc1)C(=O)N2 (stereo unspecified),"inconclusive: 2.51 µM [activator, single point]"
24,CC(C)c1ccc(N2C(=O)NC(=O)/C(=C\c3cnc(-c4ccccc4)nc3)C2=O)cc1,inactive

row,Structure (SMILES),Potency
1,COc1cc2c(cc1OC)[C@@H]1C(=O)c3ccc(OC)c(CC=C(C)C)c3OC1CO2 (stereo partly specified),active: 7.94 µM
2,COc1ccc(C2C(C(=O)N3CCC4(CC3)OCCO4)c3cc(OC)c(OC)cc3C(=O)N2C)cc1 (stereo unspecified),inactive
3,C(=C/c1ccccc1)/CN1CCN(CCOC(c2ccccc2)c2ccccc2)CC1,"inconclusive: 35.5 µM [inhibitor, partial curve, poor fit]"
4,FC(F)(F)c1ccc(Cl)cc1,inactive
5,COc1ccc(NC(=O)C(=O)NNC(=O)C(C)Oc2ccc(Cl)cc2Cl)cc1 (stereo unspecified),active: 5.01 µM
6,CC(=O)[O][Sn]([c]1ccccc1)([c]1ccccc1)[c]1ccccc1,active: 0.891 µM
7,Cc1nc2cc(C(F)(F)F)ccc2n1C1CCN(Cc2nnnn2CCc2ccccc2)CC1,"inconclusive: 6.31 µM [activator, single point]"
8,CCC(=O)N1N=C(c2c(O)n(C)c(=O)n(C)c2=O)CC1c1ccccc1 (stereo unspecified),active: 11.2 µM
9,CC(C)c1cc(Br)c(NC(=O)Nc2cccnc2)c(Br)c1,"inconclusive: 0.316 µM [inhibitor, full curve]"
10,Cn1cc2c([N+](=O)[O-])cc([N+](=O)[O-])cc2n1,"inconclusive: 1.26 µM [inhibitor, full curve, poor fit]"
11,Cc1ccc(OCCOc2cccc(C=C3C(=O)NC(=O)NC3=O)c2)cc1,"inconclusive: 14.1 µM [inhibitor, partial curve]"
12,CCCCCCCC(=O)Cl,inactive
13,C[C@@H]1Cc2c(Cl)cc(C(=O)N[C@H](Cc3ccccc3)C(=O)O)c(O)c2C(=O)O1,"inconclusive: 35.5 µM [inhibitor, single point]"
14,CCOP(=O)(OCC)C(Nc1cccc(C(F)(F)F)c1)c1ccc(C)cc1 (stereo unspecified),"inconclusive: 35.5 µM [activator, single point]"
15,CC(Cc1ccc(C(C)(C)C)cc1)CN1CCCCC1 (stereo unspecified),inactive
16,CN1C(=O)/C(=C/c2cccn2-c2ccc3ccccc3c2)C(=O)NC1=S,active: 12.6 µM
17,CCCCCCCCn1sccc1=O,active: 0.447 µM
18,CC(C)(c1ccc(OC[C@@H]2CO2)cc1)c1ccc(OC[C@H]2CO2)cc1,inactive
19,CC(C)(C)c1ccc(CSc2cnn(C(C)(C)C)c(=O)c2Cl)cc1,"inconclusive: 0.0141 µM [inhibitor, full curve, poor fit]"
20,COC(=O)CC1=C(C(=O)OC)C2(C(=O)Nc3c(C)cccc32)C(C#N)=C(N)O1 (stereo unspecified),inactive
21,COc1ccc([N+](=O)[O-])cc1N=Cc1c(O)n(CCc2ccccc2)c(=O)n(C(C)C)c1=O,"inconclusive: 22.4 µM [activator, single point]"
22,C=C(C)[C@@]12OC3(c4ccccc4)O[C@@H]1[C@@H]1[C@@H]4O[C@]4(CO)[C@@H](O)[C@]4(O)C(=O)C(C)=C[C@H]4[C@@]1(O3)[C@H](C)[C@H]2OC(=O)/C=C/C=C/c1ccccc1,inactive
23,O=C1NC(=O)N(Cc2ccccc2Cl)C(=O)/C1=C/c1cccs1,inactive

# Entries listed so far that have four or more nitrogen atoms (17):
row,Structure (SMILES),Potency
2,CC(=O)Nc1ccc(N=Cc2c(O)n(Cc3ccco3)c(=O)[nH]c2=O)cc1,"inconclusive: 20 µM [activator, single point]"
3,COc1ccc(CCn2c(O)c(C=NCc3cccnc3)c(=O)[nH]c2=O)cc1OC,inactive
4,CNC(=O)Oc1cccc(-c2cn3cc(OC(=O)NC)ccc3n2)c1,"inconclusive: 22.4 µM [inhibitor, single point]"
5,Nc1c(C(=O)OCC2CCCO2)c2nc3ccccc3nc2n1Cc1cccs1 (stereo unspecified),"inconclusive: 6.31 µM [inhibitor, single point]"
10,CC(=C1C(=O)c2ccccc2C1=O)N1CCN(CCN=Cc2c(O)n(C)c(=O)n(C)c2=O)CC1,active: 7.08 µM
15,Cc1nc2cc(-c3cccc(F)c3)nn2c(C)c1CCC(=O)N1CCC2(CC1)OCCO2,"inconclusive: 22.4 µM [inhibitor, single point]"
1,CCC(=O)Nc1nc2ccccc2n1CCN(C)C,"inconclusive: 0.631 µM [inhibitor, partial curve]"
3,C=CCn1c(O)c(/C(CC)=N/NC(=S)Nc2ccccc2)c(=O)[nH]c1=O,"inconclusive: 11.2 µM [inhibitor, partial curve, poor fit]"
7,Nc1ncnc2c1ccn2[C@@H]1O[C@H](CO)[C@@H](O)[C@H]1O,active: 0.631 µM
9,COC12C(COC(N)=O)C3=C(C(=O)C(C)=C(N)C3=O)N1CC1C2N1C (stereo unspecified),inactive
10,CCCCC(=O)N/N=C/c1c(O)n(Cc2ccco2)c(=O)[nH]c1=O,"inconclusive: 10 µM [inhibitor, partial curve]"
16,CC(c1ccccc1F)n1cc(C(=O)Nc2ccc3nc[nH]c3c2)nn1 (stereo unspecified),"inconclusive: 3.16 µM [inhibitor, partial curve]"
24,CC(C)c1ccc(N2C(=O)NC(=O)/C(=C\c3cnc(-c4ccccc4)nc3)C2=O)cc1,inactive
7,Cc1nc2cc(C(F)(F)F)ccc2n1C1CCN(Cc2nnnn2CCc2ccccc2)CC1,"inconclusive: 6.31 µM [activator, single point]"
8,CCC(=O)N1N=C(c2c(O)n(C)c(=O)n(C)c2=O)CC1c1ccccc1 (stereo unspecified),active: 11.2 µM
10,Cn1cc2c([N+](=O)[O-])cc([N+](=O)[O-])cc2n1,"inconclusive: 1.26 µM [inhibitor, full curve, poor fit]"
21,COc1ccc([N+](=O)[O-])cc1N=Cc1c(O)n(CCc2ccccc2)c(=O)n(C(C)C)c1=O,"inconclusive: 22.4 µM [activator, single point]"
